Test results as given in article PMC4460818.
No constants are given. Whether binding was seen depends on the method and setting. In cells and extracts the contact can be indirect. Some results given as binding are weak or reduced against the parent protein; the word gives no strength. For some of these results: Sequences can lack the tags named with a protein. Values belong to the binder of their own block, whether it stands above or below them.

Protein sequences, listed by entry. Tags and fused reporters are not part of them. Lines headed by an entry give the natural chain unless they say otherwise; changes in a name come on top. Chains listed by the source or under a name are the forms on record and can include a tag or linker.
UniProt Q15208: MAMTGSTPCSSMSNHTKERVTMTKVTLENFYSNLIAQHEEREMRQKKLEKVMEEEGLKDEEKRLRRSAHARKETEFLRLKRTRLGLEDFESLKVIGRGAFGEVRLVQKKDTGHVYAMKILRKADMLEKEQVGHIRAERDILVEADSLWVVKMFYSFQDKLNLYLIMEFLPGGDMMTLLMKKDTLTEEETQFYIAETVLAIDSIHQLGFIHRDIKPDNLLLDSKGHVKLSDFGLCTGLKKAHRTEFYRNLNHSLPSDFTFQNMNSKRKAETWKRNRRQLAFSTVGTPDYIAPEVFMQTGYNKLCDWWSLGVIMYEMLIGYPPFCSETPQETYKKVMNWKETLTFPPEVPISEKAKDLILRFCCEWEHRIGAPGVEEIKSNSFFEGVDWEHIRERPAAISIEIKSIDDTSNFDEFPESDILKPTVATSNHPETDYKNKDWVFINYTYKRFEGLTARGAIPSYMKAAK
FLAG-NDR1^3A (Q15208, form named): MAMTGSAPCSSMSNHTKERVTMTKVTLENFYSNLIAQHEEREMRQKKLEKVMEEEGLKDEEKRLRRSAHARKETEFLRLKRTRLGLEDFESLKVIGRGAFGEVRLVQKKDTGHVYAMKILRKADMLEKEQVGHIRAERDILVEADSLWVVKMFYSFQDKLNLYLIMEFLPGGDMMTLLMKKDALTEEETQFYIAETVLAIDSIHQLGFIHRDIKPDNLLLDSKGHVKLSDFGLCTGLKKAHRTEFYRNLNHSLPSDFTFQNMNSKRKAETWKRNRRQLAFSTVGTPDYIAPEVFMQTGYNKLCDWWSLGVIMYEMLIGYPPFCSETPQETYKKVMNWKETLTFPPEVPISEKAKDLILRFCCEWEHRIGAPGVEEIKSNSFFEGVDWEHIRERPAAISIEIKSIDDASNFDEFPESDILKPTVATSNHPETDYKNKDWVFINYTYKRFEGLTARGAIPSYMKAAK
FLAG-NDR1^3E (Q15208, form named): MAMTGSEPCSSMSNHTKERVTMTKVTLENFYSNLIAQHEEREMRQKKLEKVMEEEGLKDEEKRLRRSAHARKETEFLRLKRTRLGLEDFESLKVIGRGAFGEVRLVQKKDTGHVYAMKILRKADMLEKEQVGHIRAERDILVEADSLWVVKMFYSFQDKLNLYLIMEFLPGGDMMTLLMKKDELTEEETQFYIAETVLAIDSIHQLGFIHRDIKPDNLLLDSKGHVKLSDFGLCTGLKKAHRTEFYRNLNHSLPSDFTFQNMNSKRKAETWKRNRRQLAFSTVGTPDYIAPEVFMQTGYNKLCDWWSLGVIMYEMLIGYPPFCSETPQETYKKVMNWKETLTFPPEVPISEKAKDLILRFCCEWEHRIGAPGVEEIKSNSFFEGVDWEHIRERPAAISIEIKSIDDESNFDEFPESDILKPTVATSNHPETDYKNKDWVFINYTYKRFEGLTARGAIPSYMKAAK

How the values were obtained:
[1] = molecular target: FLAG-NDR1 wild type (human) (UniProt Q15208); experiment: co-IP; asynchronized 293T cells expressing mCherry-Mob2, GFP-Mob1A and FLAG-NDR1 (WT, 3A or 3E) together; immunoprecipitation with Flag antibody; immunoblot with Flag, GFP and Cherry antibodies
[2] = molecular target: FLAG-NDR1^3A (human) (UniProt Q15208); experiment: as above
[3] = molecular target: FLAG-NDR1^3E (human) (UniProt Q15208); experiment: as above
[4] = molecular target: LAP-tagged NDR1 (human) (UniProt Q15208); experiment: co-IP; HeLa cells stably expressing LAP-NDR1, synchronized, mitotic cells with or without the PLK1 inhibitor BI2536; immunoprecipitation with GFP-Trap agarose beads; immunoblot for GFP, actin, Mob1 and Mob2

- binding [1]: binds
- binding [2]: binds
- binding [3]: binds
B1: GFP-Mob1A (protein, UniProt Q9H8S9 1-216)
chain: MSFLFSSRSSKTFKPKKNIPEGSHQYELLKHAEATLGSGNLRQAVMLPEGEDLNEWIAVNTVDFFNQINMLYGTITEFCTEASCPVMSAGPRYEYHWADGTNIKKPIKCSAPKYIDYLMTWVQDQLDDETLFPSKIGVPFPKNFMSVAKTILKRLFRVYAHIYHQHFDSVMQLQEEAHLNTSFKHFIFFVQEFNLIDRRELAPLQELIEKLGSKDR

- binding [1]: binds
- binding [2]: binds
- binding [3]: binds
B2: mCherry-Mob2 (protein, UniProt Q70IA6 1-237)
chain: MDWLMGKSKAKPNGKKPAAEERKAYLEPEHTKARITDFQFKELVVLPREIDLNEWLASNTTTFFHHINLQYSTISEFCTGETCQTMAVCNTQYYWYDERGKKVKCTAPQYVDFVMSSVQKLVTDEDVFPTKYGREFPSSFESLVRKICRHLFHVLAHIYWAHFKETLALELHGHLNTLYVHFILFAREFNLLDPKETAIMDDLTEVLCSGAGGVHSGGSGDGAGSGGPGAQNHVKER

- binding [4]: binds
B3: endogenous Mob2 (protein, UniProt Q70IA6 1-237)
chain: B2 chain
